± gives the standard deviation of the averaged measurements. Most entries show no effect beyond the scatter of the controls.
Legend:
Test in all cases: level (log10 ratio to DMSO vehicle control); higher = higher biomarker level / cell amount than vehicle control
Pentafluoropropionamide = compound: NC(=O)C(F)(F)C(F)(F)F [Pentafluoropropionamide]; details: 2200 nM; in DMSO
Method: (§1)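 BioMAP Diversity Plus panel of 12 human primary cell co-culture systems (3C, 4H, LPS, SAg, BT, BF4T, BE3C, CASM3C, HDF3CGF, KF3CT, MyoF, Mphg). Compounds were added 1 h before stimulation and left for 24 h (MyoF 48 h; BT 72 h for soluble read-outs or 6 d for IgG). Biomarkers were read by ELISA, cytotoxicity by SRB, PBMC viability and proliferation by Alamar Blue. Each well value was divided by the mean of 8 DMSO control wells on the same plate and log10 transformed; duplicate blinded samples were tested at 4 concentrations.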

[1] = compound: COC(=O)C(F)(F)C(F)(F)OC(F)(C(F)(F)F)C(F)(F)OC(F)=C(F)F [Methyl perfluoro(3-(1-ethenyloxypropan-2-yloxy)propanoate)]; details: in DMSO
Method: as §1

[2] = compound: O=C(O)C(F)(F)C(F)(F)C(F)F [4H-Perfluorobutanoic acid]; details: in DMSO
Method: as §1

[3] = compound: NS(=O)(=O)C(F)(F)C(F)(F)C(F)(F)C(F)(F)C(F)(F)C(F)(F)C(F)(F)C(F)(F)F [Perfluorooctanesulfonamide]; details: in DMSO
Method: as §1

[4] = compound: NC(=O)C(F)(F)C(F)(F)C(F)(F)C(F)F; details: in DMSO
Method: as §1

[5] = compound: OCC(F)(F)C(F)(F)C(F)(F)C(F)(F)C(F)(F)C(F)F [1H,1H,7H-Dodecafluoro-1-heptanol]; details: 2200 nM; in DMSO
Method: as §1

[6] = compound: O=P(O)(O)CCC(F)(F)C(F)(F)C(F)(F)C(F)(F)C(F)(F)C(F)(F)F [2-(Perfluorohexyl)ethylphosphonic acid]; details: 2200 nM; in DMSO
Method: as §1

Heptafluorobutyl iodide = compound: FC(F)(F)C(F)(F)C(F)(F)CI [Heptafluorobutyl iodide]; details: 2200 nM; in DMSO
Method: as §1

[7] = compound: FC(F)(F)C(F)(F)C(F)(F)CC1CO1 [1H,1H-Heptafluorobutyl epoxide]; details: 2200 nM; in DMSO
Method: as §1

[8] = compound: O=S(=O)(OCC(F)(F)F)C(F)(F)C(F)(F)C(F)(F)C(F)(F)F [2,2,2-Trifluoroethyl perfluorobutanesulfonate]; details: 2200 nM; in DMSO
Method: as §1

[9] = compound: O=S(=O)(O)C(F)(F)C(F)(F)C(F)(F)C(F)(F)C(F)(F)C(F)(F)C(F)(F)C(F)(F)F [Perfluorooctanesulfonic acid]; details: 2200 nM; in DMSO
Method: as §1

[10] = compound: O=S(=O)(F)C(F)(F)C(F)(F)C(F)(F)C(F)(F)C(F)(F)C(F)(F)C(F)(F)C(F)(F)F [Perfluorooctanesulfonyl fluoride]; details: 2200 nM; in DMSO
Method: as §1

[11] = compound: OCCCCC(F)(F)C(F)(F)C(F)(F)C(F)(F)F [4:4 Fluorotelomer alcohol]; details: 2200 nM; in DMSO
Method: as §1

[12] = compound: C=C(C)C(=O)OCC(F)(F)C(F)(F)C(F)(F)C(F)(F)C(F)(F)C(F)(F)C(F)(F)F; details: in DMSO
Method: as §1

[13] = compound: C=CC(F)(F)C(F)(F)C(F)(F)C(F)(F)C(F)(F)C(F)(F)C(F)(F)C(F)(F)C=C [1,8-Divinylperfluorooctane]; details: in DMSO
Method: as §1

[14] = compound: C=CC(=O)OCC(F)(F)C(F)(F)C(F)(F)C(F)(F)C(F)(F)C(F)(F)C(F)(F)F [1H,1H-Perfluorooctyl acrylate]; details: 2200 nM; in DMSO
Method: as §1

[15] = compound: O=S(=O)(O)C(F)(F)C(F)(F)C(F)(F)C(F)(F)C(F)(F)C(F)(F)C(F)(F)C(F)(F)F [Potassium perfluorooctanesulfonate]; details: 2200 nM; in DMSO
Method: as §1

[16] = compound: CO[Si](C)(CCC(F)(F)C(F)(F)C(F)(F)C(F)(F)C(F)(F)C(F)(F)F)OC [Dimethoxymethyl((perfluorohexyl)ethyl)silane]; details: in DMSO
Method: as §1

Test System	level (log10) (Pentafluoropropionamide)	level (log10) ([1]; 740 nM)	level (log10) ([1]; 2200 nM)	level (log10) ([2]; 2200 nM)	level (log10) ([2]; 6700 nM)	level (log10) ([2]; 20000 nM)	level (log10) ([2]; 60000 nM)	level (log10) ([3]; 2200 nM)	level (log10) ([3]; 6700 nM)	level (log10) ([3]; 20000 nM)	level (log10) ([4]; 2200 nM)	level (log10) ([4]; 6700 nM)	level (log10) ([4]; 20000 nM)	level (log10) ([4]; 60000 nM)	level (log10) [5]	level (log10) [6]	level (log10) (Heptafluorobutyl iodide)	level (log10) [7]	level (log10) [8]	level (log10) [9]	level (log10) [10]	level (log10) [11]	level (log10) ([12]; 740 nM)	level (log10) ([12]; 2200 nM)	level (log10) ([13]; 740 nM)	level (log10) ([13]; 2200 nM)	level (log10) [14]	level (log10) [15]	level (log10) ([16]; 740 nM)	level (log10) ([16]; 2200 nM)
CASM3C:CD106/VCAM-1	-0.003 ± 0.04	-0.0035 ± 0.012	-0.0085 ± 0.005	0.014 ± 0.014	0.031 ± 0.057	0.041 ± 0.014	0.04 ± 0.0085	0.0165 ± 0.036	-0.0185 ± 0.0021	-0.0405 ± 0.037	-0.0155 ± 0.012	-0.009 ± 0.0057	-0.003 ± 0.014	-0.008 ± 0.014	0.01 ± 0.014	-0.0145 ± 0.022	0.011 ± 0.016	-0.0195 ± 0.0064	-0.0135 ± 0.022	-0.0055 ± 0.043	0.008 ± 0.0042	0.02 ± 0.09	0.0005 ± 0.011	-0.011 ± 0.014	-0.017 ± 0.057	-0.001 ± 0.0028	0.0175 ± 0.013	0.0205 ± 0.061	-0.021 ± 0.0071	-0.0125 ± 0.016
CASM3C:CD141/Thrombomodulin	-0.0125 ± 0.023	-0.0005 ± 0.035	0.0205 ± 0.0021	0.0325 ± 0.016	-0.0005 ± 0.016	0 ± 0.081	-0.0145 ± 0.028	-0.031 ± 0.0057	0 ± 0.0085	0.0505 ± 0.0078	-0.0205 ± 0.005	-0.008 ± 0.0042	0.0085 ± 0.025	0.0085 ± 0.0092	0.027 ± 0.0085	0.0075 ± 0.029	0.009 ± 0.024	-0.022 ± 0.024	-0.0095 ± 0.036	-0.0015 ± 0.026	0.0105 ± 0.015	0.02 ± 0.033	-0.0345 ± 0.016	-0.0005 ± 0.0035	-0.0185 ± 0.036	-0.025 ± 0.035	0.009 ± 0.02	0.0315 ± 0.064	-0.019 ± 0.016	0.008 ± 0.014
CASM3C:CD142/Tissue Factor	-0.015 ± 0.016	0.0005 ± 0.039	0.0075 ± 0.037	-0.0175 ± 0.054	0.0045 ± 0.14	-0.039 ± 0.093	-0.0415 ± 0.037	-0.0205 ± 0.033	0.021 ± 0.011	0.082 ± 0.04	-0.0165 ± 0.012	-0.01 ± 0.017	-0.001 ± 0.011	-0.0075 ± 0.00071	0.0015 ± 0.029	-0.0225 ± 0.049	0.0065 ± 0.043	-0.026 ± 0.057	0.004 ± 0.038	-0.0025 ± 0.026	-0.004 ± 0.0099	-0.001 ± 0.059	-0.0175 ± 0.005	-0.034 ± 0.051	-0.011 ± 0.014	0.0055 ± 0.00071	-0.0025 ± 0.035	0.0025 ± 0.11	-0.0125 ± 0.029	-0.0065 ± 0.012

Source: the supplement of paper PMC10331698
